LiHisRS: 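Histidine-tRNA ligase, Leishmania infantum (UniProt A4I591). Enzyme assay of histidyl-tRNA synthetase; the read-out is not stated. Tested at 30 µM. The record gives no direction; compounds that gave an IC50 in retests scored well above the rest, so higher reads as stronger inhibition. The assay is labelled LdHisRS but filed under L. infantum. Of about 69,000 compounds tested this way, about 410 (0.6%) reached 50% or more in at least one test.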
CoaBC: 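Enzyme assay of CoaBC with a phosphate dye (Biomol Green) read at 650 nm. Target: Coenzyme A biosynthesis protein CoaBC, Mycobacterium tuberculosis (UniProt P9WNZ1). Concentration: 30 µM. Higher reads as stronger inhibition, judged from the few compounds that gave an IC50. Most strong results did not repeat in a second test. Of about 67,000 compounds tested this way, about 40 (0.06%) reached 50% or more in at least one test.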
PfKRS1: 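Lysine-tRNA ligase, Plasmodium falciparum 3D7 (UniProt Q8IDJ8). Enzyme assay of the cytosolic lysyl-tRNA synthetase in 384-well plates, read by luminescence. Tested at 30 µM. Higher reads as stronger inhibition, judged from the few compounds that gave an IC50. About 69,000 compounds were tested under these conditions; 0.071% (about 49) showed 50% or more at least once.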
MtTrpRS: 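Enzyme assay of tryptophanyl-tRNA synthetase; the read-out is not stated. Target: Tryptophan-tRNA ligase, Mycobacterium tuberculosis (UniProt P9WFT3). Compounds at 10 µM. Direction is not recorded; retested compounds ran higher, which suggests that high means inhibition. Size under these conditions: about 65,000 compounds, about 64 of them at 50% or above in at least one test.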

By UniProt entry, the sequences of proteins in these tests, tags left out. Residues count along the entry.
UniProt A4I591, 1-473: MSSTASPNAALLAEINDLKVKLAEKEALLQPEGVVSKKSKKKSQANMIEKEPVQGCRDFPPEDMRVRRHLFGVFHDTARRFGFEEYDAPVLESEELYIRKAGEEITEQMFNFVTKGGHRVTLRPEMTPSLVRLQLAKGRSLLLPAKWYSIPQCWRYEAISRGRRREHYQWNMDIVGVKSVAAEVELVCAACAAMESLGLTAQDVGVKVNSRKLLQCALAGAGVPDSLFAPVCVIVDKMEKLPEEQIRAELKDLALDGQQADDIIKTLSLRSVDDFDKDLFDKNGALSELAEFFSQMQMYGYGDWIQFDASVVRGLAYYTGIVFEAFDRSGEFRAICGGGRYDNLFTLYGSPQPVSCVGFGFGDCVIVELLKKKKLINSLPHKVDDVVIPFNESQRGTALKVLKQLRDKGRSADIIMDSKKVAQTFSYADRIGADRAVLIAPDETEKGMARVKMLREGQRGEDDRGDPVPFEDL
UniProt P9WNZ1, whole entry: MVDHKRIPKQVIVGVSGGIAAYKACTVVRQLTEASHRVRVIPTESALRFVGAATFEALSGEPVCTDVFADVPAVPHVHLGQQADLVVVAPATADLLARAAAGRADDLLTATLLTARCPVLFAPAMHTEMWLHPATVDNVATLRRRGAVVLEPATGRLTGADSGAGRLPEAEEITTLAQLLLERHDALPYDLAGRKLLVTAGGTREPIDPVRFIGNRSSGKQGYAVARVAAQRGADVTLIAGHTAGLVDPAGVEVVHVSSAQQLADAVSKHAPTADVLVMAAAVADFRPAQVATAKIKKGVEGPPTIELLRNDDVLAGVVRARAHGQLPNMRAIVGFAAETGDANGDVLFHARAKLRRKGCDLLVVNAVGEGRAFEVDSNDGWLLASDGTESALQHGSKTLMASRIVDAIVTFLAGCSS
UniProt Q8IDJ8, 1-583: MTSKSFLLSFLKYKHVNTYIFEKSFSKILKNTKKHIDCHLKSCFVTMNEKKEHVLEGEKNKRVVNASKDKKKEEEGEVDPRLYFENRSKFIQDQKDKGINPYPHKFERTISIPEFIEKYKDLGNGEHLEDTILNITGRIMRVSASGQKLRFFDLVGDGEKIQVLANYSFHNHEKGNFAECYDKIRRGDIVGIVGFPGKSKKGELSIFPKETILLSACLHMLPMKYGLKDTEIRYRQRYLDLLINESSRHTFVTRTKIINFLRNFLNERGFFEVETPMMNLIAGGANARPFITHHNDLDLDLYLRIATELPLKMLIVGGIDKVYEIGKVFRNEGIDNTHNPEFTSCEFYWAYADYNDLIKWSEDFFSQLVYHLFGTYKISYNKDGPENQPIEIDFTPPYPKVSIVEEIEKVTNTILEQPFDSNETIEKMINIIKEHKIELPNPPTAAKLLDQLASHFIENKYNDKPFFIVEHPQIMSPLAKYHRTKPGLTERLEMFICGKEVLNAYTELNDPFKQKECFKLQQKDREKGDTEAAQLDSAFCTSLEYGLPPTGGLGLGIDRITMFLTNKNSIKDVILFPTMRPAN
UniProt P9WFT3, whole entry: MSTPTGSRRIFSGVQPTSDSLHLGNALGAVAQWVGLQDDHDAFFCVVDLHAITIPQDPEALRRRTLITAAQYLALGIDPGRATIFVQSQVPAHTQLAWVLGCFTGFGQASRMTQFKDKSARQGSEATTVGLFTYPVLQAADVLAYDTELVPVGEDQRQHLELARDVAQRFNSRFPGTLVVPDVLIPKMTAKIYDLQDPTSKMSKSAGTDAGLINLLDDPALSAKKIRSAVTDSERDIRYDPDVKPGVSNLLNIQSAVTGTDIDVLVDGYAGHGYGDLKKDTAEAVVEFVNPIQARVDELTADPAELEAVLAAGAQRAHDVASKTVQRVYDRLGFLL

Each number is a percent effect as filed.
The controls that fix the scale are not given in the record; negative values are as filed.
Compounds were drawn at random from those tested, without regard to their results.

{"smiles": "CCOCC(O)CN1CCN(C(=O)c2cc(F)ccc2C)CC1", "stereo": "centres undefined", "LiHisRS": 2.74, "CoaBC": 1.446, "PfKRS1": 2.284, "MtTrpRS": -0.5596}
{"smiles": "CCN(C)C(=O)Nc1cc(F)c(OC)cc1F", "LiHisRS": -2.703, "CoaBC": 1.946, "PfKRS1": -1.2, "MtTrpRS": 3.609}
{"smiles": "O=C(c1ccccc1)N1CC[C@H]2C[C@@H](c3nnc(C4CC4)o3)O[C@@H]2C1", "LiHisRS": 13.64, "CoaBC": 0, "PfKRS1": 1.575}
{"smiles": "COc1ccc(Oc2ncccc2C(F)(F)F)cc1CN1CCCC1", "LiHisRS": 15.83, "CoaBC": -1.366, "PfKRS1": -3.314, "MtTrpRS": -1.737}
{"smiles": "Cc1ncsc1C(=O)NC1CCN(Cc2ccc(C(N)=O)cc2)CC1", "LiHisRS": 7.143, "CoaBC": -1.591, "PfKRS1": 0.5764, "MtTrpRS": -5.581}
{"smiles": "Cc1ccc2nc(CN3CCCCC3CCn3cccn3)cn2c1", "stereo": "centres undefined", "LiHisRS": 20.48, "CoaBC": 8.657, "PfKRS1": -0.9874, "MtTrpRS": 1.53}
{"smiles": "CC(=O)N(Cc1ncc(C)o1)C1CCN(CCOc2ccccc2)C1", "stereo": "centres undefined", "LiHisRS": 2.564, "CoaBC": -2.545, "PfKRS1": -5.451, "MtTrpRS": -1.242}
{"smiles": "CCN(CCC1CCN(C(=O)NCc2nncn2CC)CC1)CC1CC1", "LiHisRS": 11.3, "CoaBC": -4.962, "PfKRS1": 0.7871, "MtTrpRS": 9.201}
{"smiles": "COc1ccccc1OCCCN1CC=C(c2cnn(C)c2)CC1", "LiHisRS": 17.14, "PfKRS1": 0.47, "MtTrpRS": 7.74}
{"smiles": "CCc1nc(C2CCCN2Cc2noc(Cc3ccccc3)n2)no1", "stereo": "centres undefined", "LiHisRS": 6.612, "CoaBC": 15.77, "PfKRS1": 16.76, "MtTrpRS": 1.546}
{"smiles": "CN(Cc1ccc(C(=O)O)cc1)C(=O)c1sccc1OC(F)F", "LiHisRS": 13.43, "CoaBC": -2.41, "PfKRS1": -0.3222, "MtTrpRS": 5.369}
{"smiles": "CC(C)(C)N1CC(C(=O)NCc2noc(Cc3ccccc3)n2)CC1=O", "stereo": "centres undefined", "LiHisRS": 11.48, "CoaBC": 3.581, "PfKRS1": -0.6497, "MtTrpRS": -2.835}
{"smiles": "Cn1cnnc1S(=O)(=O)C1CCN(S(=O)(=O)C2CC2)CC1", "LiHisRS": 1.923, "CoaBC": -1.493, "PfKRS1": -1.797, "MtTrpRS": -0.2138}
{"smiles": "Cc1cc(C(=O)NCC2(N(C)C)CCCC2)c(C)n1-c1cccnc1", "LiHisRS": -2.083, "CoaBC": 4.327, "PfKRS1": 2.684, "MtTrpRS": -6.05}
{"smiles": "Nc1nc2c(c(NCc3ccc(C(=O)N4CCCC4)cc3)n1)CCCC2", "LiHisRS": 26.76, "CoaBC": -9.611, "PfKRS1": -0.2885, "MtTrpRS": -1.474}
{"smiles": "O=C(c1ncoc1C1CCCO1)N1CC2(CCCC2)c2ccccc21", "stereo": "centres undefined", "LiHisRS": 14.29, "PfKRS1": 1.073, "MtTrpRS": -3.199}
{"smiles": "COC1CCN(S(=O)(=O)N2CC(c3ccccc3)C(C)(C)C2)CC1", "stereo": "centres undefined", "LiHisRS": 0.8333, "CoaBC": -2.36, "PfKRS1": -2.367, "MtTrpRS": -2.171}
{"smiles": "CCNC(=O)CCC(=O)NC(Cc1ccccc1)c1sccc1C", "stereo": "centres undefined", "LiHisRS": -2.74, "CoaBC": 3.984, "PfKRS1": 8.047, "MtTrpRS": -3.343}
{"smiles": "Cc1nn(CCO)c(C)c1CN1CCN(C2CCCCC2)C(=O)C1", "LiHisRS": 9.735, "CoaBC": 4.459, "PfKRS1": 7.406, "MtTrpRS": -1.591}
{"smiles": "O=C(Nc1ccc(-c2ccccc2)cn1)C1CCN(C(=O)C2CC2)CC1", "LiHisRS": 25.71, "CoaBC": 4.104, "PfKRS1": -1.81, "MtTrpRS": -3.694}
{"smiles": "Cc1cccnc1CN(C)c1ncnc2[nH]ccc12", "LiHisRS": 21.43, "CoaBC": 1.025, "PfKRS1": 4.562, "MtTrpRS": -1.444}

2 of the entries, repeated:

{"smiles": "CCOCC(O)CN1CCN(C(=O)c2cc(F)ccc2C)CC1", "stereo": "centres undefined", "LiHisRS": 2.74, "CoaBC": 1.446, "PfKRS1": 2.284, "MtTrpRS": -0.5596}
{"smiles": "Nc1nc2c(c(NCc3ccc(C(=O)N4CCCC4)cc3)n1)CCCC2", "LiHisRS": 26.76, "CoaBC": -9.611, "PfKRS1": -0.2885, "MtTrpRS": -1.474}

From ChEMBL document CHEMBL3988442, “University of Dundee, Small-Polar-MMV Screening Library” (2021).